Patent US11746124B2 (FORSCHUNGSVERBUND BERLIN E.V., priority 2016, dated 2023)

Test: general procedure: Fmoc solid-phase peptide synthesis; Rink amide resin (0.4 mmol/g; 0.78 mmol/g); NovaSynTGT alcohol resin (0.26 mmol/g) for c(RGDfK); HOBt/HBTU/DIPEA; HATU/DIPEA
Conditions: conjugation step

For Amidate-Val-Cit-Pab-MMAF, the conjugation yield was 19.2%.
